Data taken from ChEMBL document CHEMBL3988442, “University of Dundee, Small-Polar-MMV Screening Library” (2021).

Each number is a percent effect as filed.
The controls that fix the scale are not given in the record; negative values are as filed.
The compounds are a random part of those screened.
Two or more numbers in one place are separate tests of the same structure; such repeats can differ widely.

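Viability assay of Plasmodium falciparum sporozoites; the read-out is not stated. The concentration is filed as 10 mM, unlikely as a test dose, so the dose is not known. Higher reads as lower viability (inferred: compounds with an IC50 in retests scored well above the rest). Strong results were mostly tested again. Of about 34,000 compounds tested this way, about 280 (0.84%) reached 50% or more in at least one test.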

* CS(=O)(=O)NCc1nnc2n1CCN(Cc1cccnc1)C2 | 10.91%
* Cc1cccc(CNC(C)c2ccc(OCC(=O)NC3CC3)cc2)c1 (centres unmarked) | 2.826%
* COc1ccc(C(C)NCc2ccnn2C)cc1Cn1cccn1 (centres unmarked) | 6.842%
* Cc1nn(C)c(C)c1NC(=O)CNC(c1ccccc1)C1CCCC1 (centres unmarked) | -4.329%
* COCc1ccc(OC)c(CNC2CCCNC2=O)c1 (centres unmarked) | 2.366%
* [H][C@]12CN(C(C)=O)CCN1C[C@H](CO)[C@H]2c1ccccc1 | -34.06%
* Cc1ccccc1N1CCCN(C(=O)CCc2ccncc2)CC1 | -8.402%
* CN1CCCN(S(=O)(=O)c2cn(C)cn2)c2cc(Cl)ccc21 | -10.32%
* COc1cccc(CN2CCCCC2c2n[nH]cc2-c2cc(C)no2)c1.Cl (centres unmarked) | 5.952% & -9.873% & 0.8114%
* CCNc1cc2c(nn1)CCN(C(=O)c1cc3cccc(C)c3o1)C2 | -0.2629%
* Cc1ccc(N(C)S(=O)(=O)c2cc(C(=O)O)cs2)c(C)c1 | 0.8752%
* O=C(Cc1ccc(O)c(Cl)c1)N1CCCCC1CCn1cccn1 (centres unmarked) | -0.5882%
* Cc1cccc(C(C(=O)N2CC(Oc3ccccc3F)C2)N(C)C)c1 (centres unmarked) | 4.71%
* Cc1cc(F)cc(S(=O)(=O)NC(=O)CCc2cncc(F)c2)c1 | -12.91%
* Cc1nc(CN2CCCN(C(=O)c3sccc3C#N)CC2)cs1 | 2.891%
* CCN1C(=O)C(C)(C)c2cc(NC(=O)c3ccco3)ccc21 | -15.92%
* CCn1ccnc1CN1CCN(CCC(=O)NC(C)(C)C)CC1C (centres unmarked) | 1.804%
* CN(C(=O)Cc1ccc2c(c1)OCCO2)C1CCCCC1 | -3.301%
* COc1ccc(C[C@H]2CN(C3CCOCC3)CC[C@H]2OCC2CC2)cc1.O=C(O)C(F)(F)F | 6.33%
* COCCN1CCCC(C)(c2cc(O)[nH]n2)C1 (centres unmarked) | 5.051%
* COCCN1CCCC1c1nccnc1Nc1nccs1 (centres unmarked) | 2.343%
* CCc1sc(-c2nnc(CNCCn3cc(C)cn3)o2)cc1C | 6.756%
* Fc1cc(CNCc2ccc3c(c2)CCO3)ccc1N1CCOCC1 | -22.71%
* CC(C)(C)C(=O)N1CCN(CCOc2cccc(C#N)c2)CC1 | -5.228%
* N#Cc1cc(NS(=O)(=O)c2cc(C(=O)O)cc(Cl)c2Cl)ccc1F | 0.5511%
* CCOc1ncccc1CNC(=O)Nc1cc(C)nn1C | 1.413%
* CSc1ccc(CN(C)C(=O)c2cc3c([nH]c2=O)CCCC3=O)cc1 | 5.63%
* COCc1ncn2c1CN(C(=O)C1CC=CC1)CC2 | -14.53%
* CC(C)(CNCc1ccc(OCc2cscn2)cc1)C(N)=O.Cl | -8.881%
* COc1ccc(N(Cc2ccco2)C(=O)C2CCOC2)cc1F (centres unmarked) | 13.71%
* CCOCC1CN(C(=O)Cc2ccccn2)Cc2c1cnn2CC (centres unmarked) | 19.36%
* CN(Cc1ccncc1)C1COC2(CCN(Cc3nccn3C)CC2)C1.O=C(O)C(F)(F)F.O=C(O)C(F)(F)F.O=C(O)C(F)(F)F (centres unmarked) | -14.6%
* O=C(O)C(F)(F)F.O=S(=O)(c1cccs1)N1Cc2nc(CN3CCCCC3)oc2C1 | -14.01%
* O=C(NCCc1ccc(F)cc1)C1CN(C(=O)Cn2cncn2)C1 | 8.554%
* O=C(O)C(F)(F)F.[H][C@]12CCN(c3cc(OC)ncn3)[C@@]1([H])C[C@@H](C(=O)N(C)C)O2 | 11.47%
* CCCn1cc(NC(=O)c2ccncc2)ccc1=O | 0.1304%
* CC(C(=O)NCc1ccc(N2CCCC2)nc1)S(C)(=O)=O (centres unmarked) | 12.62%
* O=C(c1cc(Cl)c2c(c1)OCO2)N1CCN(c2nccs2)CC1 | -8.383%
* Cc1cc(C)nc(N2CCN(Cc3nccn3C)CC2)n1.O=CO | -13.8%
* CCNc1cc2c(nn1)CCN(C(=O)c1cccc3c1OCCO3)C2 | 8.831%
* COc1c(CNC2CCN(C(C)(C)C)CC2)c(C(C)C)nn1C | -2.037%
* O=C(O)c1cccc(S(=O)(=O)N2CCOc3ccccc32)c1 | 8.824%
* Cc1cc(CCC(=O)N2CCCC2)nc(C2CCCN2)n1 (centres unmarked) | 5.996%
* [H][C@@]12OCCN(C(=O)c3nn(C)c4ccccc34)[C@@]1([H])CC[C@H]2OC | 19.58%
* O=C(Cn1cccnc1=O)NC(Cc1ccsc1)c1cccnc1 (centres unmarked) | 10.6%
* Cc1ccc(N2CCCc3sc(C(=O)NCc4cccnc4)nc32)nn1 | -13.94%
* CN1CCOC(CNCCCOc2ccc(C#N)cc2)C1 (centres unmarked) | -1.93%
* [H][C@]12CN(Cc3ccc[nH]3)C[C@@]1([H])OCCN(C(=O)c1ccccc1)C2 | 5.592%
* CN1CCN(S(=O)(=O)c2ccc(Cl)c(Cl)c2)c2cnccc21 | -22.78% & -8.887%
* COCC(O)CN1CCC(=O)N(Cc2ccccc2)Cc2ccccc21 (centres unmarked) | -32.97%
* c1ccc(CCCN2CC(n3cccn3)C2)cc1 | 4.428%
* Cl.c1cnc2c(c1)cc([C@H]1CCCO1)n2CCN1CCOCC1 | 0.5924%
* [H][C@@]12CCN(Cc3ccoc3)C[C@@]1([H])O[C@@H](C(=O)NCCOC)C2 | 2.971%
* CCOc1ccc(-c2ccnc(C3CC3)n2)cc1C(=O)O | -1.874%
* CS(=O)(=O)NCC1CCCN(C(=O)c2ccc(F)c(F)c2)C1 (centres unmarked) | 11.85% & 3.016% & 19.26%
* CCc1ccccc1-n1cc(O)c(C(=O)N2CCCCC2)n1 | -12.95%
* O=C(Cn1nnc(-c2cc3ccccc3o2)n1)N1CCOCC1 | 1.647%
* Cc1nc(C2CCCN2Cc2nc(C3CC3)no2)no1 (centres unmarked) | -21.01% & -5.226% & -4.558%

The first 7 entries again:

Compound	percent effect
CS(=O)(=O)NCc1nnc2n1CCN(Cc1cccnc1)C2	10.91%
Cc1cccc(CNC(C)c2ccc(OCC(=O)NC3CC3)cc2)c1 (centres unmarked)	2.826%
COc1ccc(C(C)NCc2ccnn2C)cc1Cn1cccn1 (centres unmarked)	6.842%
Cc1nn(C)c(C)c1NC(=O)CNC(c1ccccc1)C1CCCC1 (centres unmarked)	-4.329%
COCc1ccc(OC)c(CNC2CCCNC2=O)c1 (centres unmarked)	2.366%
[H][C@]12CN(C(C)=O)CCN1C[C@H](CO)[C@H]2c1ccccc1	-34.06%
Cc1ccccc1N1CCCN(C(=O)CCc2ccncc2)CC1	-8.402%